PubChem BioAssay AID1741 (Vanderbilt High Throughput Screening Facility, 2009)
The campaign covered roughly 1,700 compounds. About 150 (8.8%) were called active. This list was built around the results that the source calls inconclusive (neither active nor inactive); the mix of calls is not that of the screen.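 Rule for the calls: active = fluorescence change differing from the plate's solvent-only control wells at 99.7% confidence in both duplicates, whether higher or lower; inconclusive = differs from solvent controls in only one of two duplicates; inactive = the rest.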

Sequences of proteins named here, by UniProt entry; tags and fusion partners are left off.
UniProt P08485, whole entry, looked up: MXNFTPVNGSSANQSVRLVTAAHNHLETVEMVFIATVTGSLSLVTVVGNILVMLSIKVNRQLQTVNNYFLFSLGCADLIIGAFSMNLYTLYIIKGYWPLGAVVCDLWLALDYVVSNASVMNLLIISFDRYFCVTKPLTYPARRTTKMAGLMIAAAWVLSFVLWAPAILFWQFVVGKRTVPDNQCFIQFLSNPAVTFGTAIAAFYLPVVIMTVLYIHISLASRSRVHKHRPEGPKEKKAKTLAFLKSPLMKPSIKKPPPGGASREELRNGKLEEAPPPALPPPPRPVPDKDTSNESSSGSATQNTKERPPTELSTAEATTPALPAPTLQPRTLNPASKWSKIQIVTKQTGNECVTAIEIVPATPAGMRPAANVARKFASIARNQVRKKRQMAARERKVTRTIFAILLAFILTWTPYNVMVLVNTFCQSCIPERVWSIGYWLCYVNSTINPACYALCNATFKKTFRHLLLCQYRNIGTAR

target: Muscarinic acetylcholine receptor M4 (Rattus norvegicus) (UniProt P08485); assay: rat M4 muscarinic receptor activation – cell-based, agonist mode, counter-screen for M1 allosteric modulator project, confirmation (AID 1741); conditions: CHO M4/Gqi5 cells, Fluo-4 calcium fluorescence, at 10 µM, actives lie on both sides

| Compound | fluorescence change (max-min) |
| --- | --- |
| O=C(Nc1nc2n(n1)C(c1ccccc1)C=C(c1ccccc1)N2)c1ccco1 (stereo not given) | inactive: 26.3 |
| Cn1c(=O)n(C)c2cc(S(=O)(=O)NCCc3ccccc3)ccc21 | inconclusive: -26.5 |
| Cc1c(NC(=O)c2cccc(F)c2)c(=O)n(-c2ccccc2)n1C | inconclusive: -76.1 |
| CNC(=O)C1CC(=O)N(Cc2ccccc2)C(=Nc2ccc(OC)cc2)S1 (stereo not given) | inconclusive: -119 |
| O=C(NCCc1c[nH]c2ccccc12)c1cnc2sccn2c1=O | inconclusive: -61.1 |
| CCOC(=O)Cc1csc(NC(=O)c2ccc3c(c2)OCO3)n1 | inconclusive: -70.2 |
| Cc1ccc2c(c1)[nH]c1c(N3CCN(Cc4ccccc4)CC3)ncnc12 | inconclusive: -131 |
| COCCn1c(-c2ccccc2)nc2oc3ccccc3c(=O)c2c1=O | active: -95.9 |
| CC(C)n1c(N2CCN(CC(=O)Nc3ccc4c(c3)OCCO4)CC2)nc2ccccc21 | inconclusive: -62.7 |
| CN1CCC2(CC1)C1CN(C)CC=C1C(C#N)=C(N)C2(C#N)C#N (stereo not given) | active: 160 |
| Cn1c(=O)c(NCCO)c2c3c(cccc31)C(=O)c1ccccc1-2 | active: 2590 |
| Cc1ccc(S(=O)(=O)c2cccc(S(=O)(=O)N3CCCC3)c2)cc1S(=O)(=O)N1CCCC1 | inconclusive: -37.2 |
| O=C(C1CCCN(S(=O)(=O)c2cccc3cccnc23)C1)N1CCN(c2ccc(F)cc2)CC1 (stereo not given) | inconclusive: -60.4 |
| CC(C)OCCCNc1ncnc2c1[nH]c1ccc(F)cc12 | inactive: -4.51 |
| COc1ccc(CCNc2oc(-c3ccccc3OC)nc2C#N)cc1OC | active: -73.8 |
| CC1(C)Cc2c(C#N)c(SCCOc3ccccc3)nc(N3CCOCC3)c2CO1 | inconclusive: -59.5 |
| CCC(=O)N1CCN(c2ccccc2NC(=O)c2cccc(C)c2)CC1 | inconclusive: -69 |
| O=C(Nc1ccccc1N1CCN(C(=O)c2ccc(Cl)cc2)CC1)c1cc2ccccc2o1 | inconclusive: -90.7 |
| COc1ccccc1N1CCN(C(c2cc3ccc(C)cc3[nH]c2=O)c2nnnn2C2CCCC2)CC1 (stereo not given) | inactive: -60.4 |
| O=C(Nc1ccc(F)cc1)N(Cc1ccco1)Cc1cc2cc3c(cc2[nH]c1=O)OCO3 | inactive: -22 |
| CCOC(=O)c1ccc(NC(=O)Nc2ccc(OC)c(OC)c2)cc1 | inconclusive: -71.3 |
| N#Cc1nc(COc2ccccc2)oc1N1CCN(c2cccc(Cl)c2)CC1 | inconclusive: -106 |
| Cc1cccn2c(=O)c3cc(C(=O)NCc4ccco4)c(=N)n(CCc4ccccc4)c3nc12 | inactive: -27.6 |

A different layout for some results above.
Compound	fluorescence change (max-min)
O=C(Nc1ccc(F)cc1)N(Cc1ccco1)Cc1cc2cc3c(cc2[nH]c1=O)OCO3	inactive: -22
CCOC(=O)c1ccc(NC(=O)Nc2ccc(OC)c(OC)c2)cc1	inconclusive: -71.3

Carrying on:

| Compound | fluorescence change (max-min) |
| --- | --- |
| CCOc1ccc(CCNC(=O)c2oc3c(c2C)-c2[nH]ncc2CC3)cc1OCC | active: -73.8 |
| CC12CC(NC(=O)N1c1cccc(C(=O)NCc3ccc4c(c3)OCO4)c1)c1cc(Cl)ccc1O2 (stereo not given) | inactive: -50 |
| CCn1cnc2sc(C(=O)N(Cc3ccc(N(C)C)cc3)Cc3ccco3)c(C)c2c1=O | inconclusive: -70.6 |
| Cc1nc2ccccc2n2c(O)c(CC(=O)O)cc12 | active: 1090 |
| Cc1cnc(-c2nnc(N(C)C(=O)C3CCCO3)s2)cn1 (stereo not given) | inactive: -25.1 |
| COc1ccc2ccccc2c1/C=N/O | active: -70.6 |
| CN(C)C=Nc1c(Br)cc(Br)c2nonc12 | active: 617 |
| Cc1ccc(C(=O)NCCn2cc(SCC(=O)Nc3nnc(C)s3)c3ccccc32)cc1 | inactive: -58 |
| O=C(O)c1ccc(S(=O)(=O)NC2CCCc3ccccc32)cc1 (stereo not given) | inconclusive: -70.2 |
| COc1ccc(-c2noc(Cc3cccs3)n2)cc1 | inconclusive: -88.7 |
| CC(C)c1nnc(NC(=O)CCC(=O)N2CCN(C3CCCCC3)CC2)s1 | inactive: -8.59 |
| COc1cccc(NC(=O)c2cccs2)c1 | inconclusive: -135 |
| CCC(=O)N(CC)c1nc(-c2ccc(OC)cc2)cs1 | active: -74.7 |
| CC(=O)c1cccc(NC(=O)Nc2ccc3c(c2)N(C)C(=O)CS3)c1 | inconclusive: -154 |
| CN(C)c1ccc2c(c1)OC(N)=C(C#N)C2c1cccc(F)c1 (stereo not given) | active: 120 |
| COc1cc(C2C(C#N)=C(N)Oc3cc(N(C)C)ccc32)cc2c1OCO2 (stereo not given) | active: 203 |
| O=C(c1cc2nc(-c3ccco3)cc(C(F)(F)F)n2n1)N1CCN(c2ccccn2)CC1 | inactive: -48.8 |
| CCOc1nc(-c2ccc(OC)cc2)ccc1-c1noc(-c2cc(OC)c(OC)c(OC)c2)n1 | inactive: 18.4 |
| c1cc2c(cc1-c1cnc3n1CCC3)OCCO2 | inactive: -61 |
| O=C1c2ccccc2C(=O)N1CCc1nc2ccccc2c(=O)n1Cc1ccco1 | inactive: -14.1 |
| c1ccc(CN2CCN(c3ncnc4c3[nH]c3ccccc34)CC2)cc1 | inconclusive: -72.7 |
| Cc1cccc(N2CCN(C(=O)C3CCN(S(=O)(=O)c4cccc5cccnc45)CC3)CC2C)c1 (stereo not given) | inconclusive: -31.3 |
